Cell number after 72 h of treatment

From a melanoma drug combination screen (doi:10.1371/journal.pone.0140310); values rounded.

Every entry is a combination with A-769662 at 10000 nM: N#Cc1c(O)c2c(-c3ccc(-c4ccccc4O)cc3)csc2[nH]c1=O

Compounds and concentrations:
CP-690550: C[C@@H]1CCN(C(=O)CC#N)C[C@@H]1N(C)c1ncnc2[nH]ccc12 at 5000 nM
OSU-03012: NCC(=O)Nc1ccc(-n2nc(C(F)(F)F)cc2-c2ccc3c(ccc4ccccc43)c2)cc1 at 5000 nM
CX-4945: O=C(O)c1ccc2c(c1)nc(Nc1cccc(Cl)c1)c1ccncc12 at 2000 nM
FK866: O=C(/C=C/c1cccnc1)NCCCCC1CCN(C(=O)c2ccccc2)CC1 at 50 nM
nilotinib: Cc1cn(-c2cc(NC(=O)c3ccc(C)c(Nc4nccc(-c5cccnc5)n4)c3)cc(C(F)(F)F)c2)cn1 at 1000 nM
BMS-536924: Cc1cc(N2CCOCC2)cc2[nH]c(-c3c(NC[C@@H](O)c4cccc(Cl)c4)cc[nH]c3=O)nc12 at 1000 nM
docetaxel: CC(=O)O[C@@]12CO[C@@H]1C[C@H](O)[C@@]1(C)C(=O)[C@H](O)C3=C(C)[C@@H](OC(=O)[C@H](O)[C@@H](NC(=O)OC(C)(C)C)c4ccccc4)C[C@@](O)([C@@H](OC(=O)c4ccccc4)[C@H]21)C3(C)C at 0.5 nM
IMD-0354: O=C(Nc1cc(C(F)(F)F)cc(C(F)(F)F)c1)c1cc(Cl)ccc1O at 80 nM
darinaparsin: C[As](C)SC[C@H](NC(=O)CC[C@H](N)C(=O)O)C(=O)NCC(=O)O at 2000 nM
GW9662: O=C(Nc1ccccc1)c1cc([N+](=O)[O-])ccc1Cl at 10000 nM
vorinostat: O=C(CCCCCCC(=O)Nc1ccccc1)NO at 400 nM
ABT-263: CC1(C)CCC(c2ccc(Cl)cc2)=C(CN2CCN(c3ccc(C(=O)NS(=O)(=O)c4ccc(N[C@H](CCN5CCOCC5)CSc5ccccc5)c(S(=O)(=O)C(F)(F)F)c4)cc3)CC2)C1 at 2000 nM
PF-04217903: OCCn1cc(-c2cnc3nnn(Cc4ccc5ncccc5c4)c3n2)cn1 at 5000 nM
PLX4720: CCCS(=O)(=O)Nc1ccc(F)c(C(=O)c2c[nH]c3ncc(Cl)cc23)c1F at 400 nM
nutlin-3: COc1ccc(C2=N[C@@H](c3ccc(Cl)cc3)[C@@H](c3ccc(Cl)cc3)N2C(=O)N2CCNC(=O)C2)c(OC(C)C)c1 at 500 nM
LFM-A13: C/C(O)=C(\C#N)C(=O)Nc1cc(Br)ccc1Br at 10000 nM
CHIR-265: Cn1c(Nc2ccc(C(F)(F)F)cc2)nc2cc(Oc3ccnc(-c4ncc(C(F)(F)F)[nH]4)c3)ccc21 at 400 nM
fludarabine: Nc1nc(F)nc2c1ncn2[C@@H]1O[C@H](CO)[C@@H](O)[C@@H]1O at 1000 nM
bexarotene: C=C(c1ccc(C(=O)O)cc1)c1cc2c(cc1C)C(C)(C)CCC2(C)C at 10000 nM
dasatinib: Cc1nc(Nc2ncc(C(=O)Nc3c(C)cccc3Cl)s2)cc(N2CCN(CCO)CC2)n1 at 20 nM

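Human melanoma cells were exposed to a pair of drugs for 72 h in 1,536-well plates and read by automated microscopy after fixing and staining. Values are the number of DAPI-stained nuclei as a percentage of the DMSO control: 100 is no effect, lower means fewer cells. Every drug was used at one fixed concentration, the higher of two screened. These are primary screening values without error estimates.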 Only some of the drugs and lines screened are listed, without regard to their results.

Partner,WM451Lu
bexarotene,76.6
dasatinib,82.4
GW9662,102
PF-04217903,96.9
BMS-536924,102
nilotinib,110
darinaparsin,86.7
IMD-0354,116
fludarabine,90.1
ABT-263,78.8
vorinostat,80.3
CP-690550,109
OSU-03012,77.8
nutlin-3,111
FK866,94.5
PLX4720,59.2
docetaxel,44.4
LFM-A13,104
CX-4945,104
CHIR-265,44.1

For reference, 2 entries once more:

Partner	WM451Lu
OSU-03012	77.8
CP-690550	109